Test results taken from the supplement of paper PMC4635364.
Where a name gives a salt, the structure may show the parent alone. The list shows a part of the results. Repeats in this data set agree poorly, so a single value says little.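 Human fetal ventral-midbrain neural progenitor line ReNCell VM, differentiated without mitogens. Images stained for doublecortin (early neurons) or tyrosine hydroxylase (dopaminergic neurons) were scored by blinded raters against untreated wells (0 = no change). Repeats and both raters were averaged, and compounds averaging 2 or higher were picked as hits for retesting.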

These compounds were tested on ReNCell VM (assay: neuronal differentiation score (DCX+ cell fraction vs untreated, manual image score) (score (-3 to 3)); higher = more neuronal differentiation). Conditions: library: LOPAC; 2 uM; 2 weeks.

Neuronal differentiation score, inactive:
CC(=O)OCC1=C(C(=O)O)N2C(=O)[C@@H](NC(=O)CSc3ccncc3)[C@H]2SC1 [Cephapirin sodium] 0
O=c1c(O)c(-c2ccc(O)cc2O)oc2cc(O)cc(O)c12 [Morin] 0
Nc1nc(Cl)nc2c1ncn2[C@@H]1O[C@H](COP(=O)(O)OP(=O)(O)OP(=O)(O)O)[C@H](O)C1O (some centres undefined) [2-Chloroadenosine triphosphate tetrasodium] -3
COc1cc2nc(N3CCN(C(=O)OCc4ccccc4)[C@H](C(=O)NC(C)(C)C)C3)nc(N)c2cc1OC 0
C[C@H]1O[C@@H](n2cc(F)c(=O)[nH]c2=O)[C@H](O)[C@@H]1O [5-fluoro-5'-deoxyuridine] 0
CCCCS(=N)(=O)CCC(N)C(=O)O (racemic) [DL-Buthionine-[S,R]-sulfoximine] 0
N=C(N)NCCC[C@H](N)C(=O)O [L-Arginine] 0
NCCCCC(=O)O [5-Aminovaleric acid hydrochloride] 0
O=c1[nH]cc(F)c(=O)[nH]1 [5-Fluorouracil] 0
